Assay results from paper doi:10.1101/2020.04.20.049957.
Where two headings read alike, the source gives them in different places. These are yes or no findings as the source states them, for the method shown. Binding seen in cells or lysates may run through a third protein. Some entries that bind do so weakly or less than the wild type.

Amino acid sequences for entries named in this document (tags omitted). Residues count along the entry.
UniProt P56726, residues 33-793: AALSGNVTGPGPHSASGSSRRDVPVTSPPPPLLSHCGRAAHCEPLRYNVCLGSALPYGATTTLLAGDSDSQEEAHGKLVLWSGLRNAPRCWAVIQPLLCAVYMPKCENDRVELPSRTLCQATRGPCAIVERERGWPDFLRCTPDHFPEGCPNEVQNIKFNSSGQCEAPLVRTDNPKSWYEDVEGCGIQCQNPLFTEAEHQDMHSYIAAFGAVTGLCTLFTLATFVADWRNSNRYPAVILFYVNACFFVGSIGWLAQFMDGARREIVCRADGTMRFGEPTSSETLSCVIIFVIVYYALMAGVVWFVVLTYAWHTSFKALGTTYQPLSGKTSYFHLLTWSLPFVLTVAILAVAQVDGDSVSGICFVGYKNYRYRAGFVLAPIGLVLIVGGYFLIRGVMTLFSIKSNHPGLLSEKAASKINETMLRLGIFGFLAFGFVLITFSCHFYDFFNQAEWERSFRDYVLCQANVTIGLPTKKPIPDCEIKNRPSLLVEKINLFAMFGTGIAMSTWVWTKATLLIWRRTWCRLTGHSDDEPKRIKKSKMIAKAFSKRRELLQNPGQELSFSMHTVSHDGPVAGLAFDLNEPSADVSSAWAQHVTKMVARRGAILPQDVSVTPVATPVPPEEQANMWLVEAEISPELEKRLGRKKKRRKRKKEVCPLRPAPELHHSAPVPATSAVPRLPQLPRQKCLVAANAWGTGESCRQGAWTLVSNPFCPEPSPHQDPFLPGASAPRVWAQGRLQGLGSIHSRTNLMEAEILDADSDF
UniProt Q9R0Q3, residues 21-201: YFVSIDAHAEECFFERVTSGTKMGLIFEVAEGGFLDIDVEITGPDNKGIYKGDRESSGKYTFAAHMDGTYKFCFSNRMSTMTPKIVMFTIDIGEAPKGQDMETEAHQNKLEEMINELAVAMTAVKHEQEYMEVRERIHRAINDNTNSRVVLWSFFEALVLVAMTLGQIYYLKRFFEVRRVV
UniProt Q15363, residues 21-201: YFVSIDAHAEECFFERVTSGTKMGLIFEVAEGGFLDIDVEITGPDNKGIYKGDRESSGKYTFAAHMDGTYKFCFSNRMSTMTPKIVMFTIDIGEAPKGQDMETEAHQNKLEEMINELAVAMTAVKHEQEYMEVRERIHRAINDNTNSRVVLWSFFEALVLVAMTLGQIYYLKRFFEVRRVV

B1: TMED10 (endogenous, mouse ESCs) (protein, UniProt Q9D1D4 32-219)
chain: ISFHLPVNSRKCLREEIHKDLLVTGAYEITDQSGGAGGLRTHLKITDSAGHILYAKEDATKGKFAFTTEDYDMFEVCFESKGTGRIPDQLVILDMKHGVEAKNYEEIAKVEKLKPLEVELRRLEDLSESIVNDFAYMKKREEEMRDTNESTNTRVLYFSIFSMFCLIGLATWQVFYLRRFFKAKKLIE

Assays:
[1] = target: HA-SMO (mouse Smoothened, N-terminally HA tagged) (mouse) (UniProt P56726); assay: co-IP
[2] = target: SMO-HA (mouse Smoothened, C-terminally HA tagged) (mouse) (UniProt P56726); assay: co-IP
[3] = target: HA-SMO (mouse Smoothened, N-terminally HA tagged) (mouse) (UniProt P56726); assay: co-IP; remark: listed apart in the source
[4] = target: SMO-HA (mouse Smoothened, C-terminally HA tagged) (mouse) (UniProt P56726); assay: co-IP; remark: listed apart in the source
[5] = target: SMO-HA (mouse Smoothened, C-terminally HA tagged) (mouse) (UniProt P56726); assay: co-IP; remark: listed apart in the source
[6] = target: wild type SMO (in 293T cells) (UniProt P56726); assay: pull-down

Molecule	binding [1]	binding [2]	binding [3]	binding [4]	binding [5]	binding [6]
TMED2 (endogenous, mouse ESCs and NPCs) (from UniProt Q9R0Q3 21-201)	binds weakly	binds weakly	binds	binds	binds	–
TMED2 (in 293T cells) (from UniProt Q15363 21-201)	–	–	–	–	–	binds
B1	–	–	–	–	no binding	–
